In patent US20180303952A1:
Results are given in words; binding and its absence hold for the method and conditions named. Binding calls can cover weak binding; strength is not graded here.

The chains behind the UniProt entries cited, without tags or fusion partners. Where a name states a change or a piece, a line headed by the entry shows the natural chain unless it says otherwise.
UniProt P35613: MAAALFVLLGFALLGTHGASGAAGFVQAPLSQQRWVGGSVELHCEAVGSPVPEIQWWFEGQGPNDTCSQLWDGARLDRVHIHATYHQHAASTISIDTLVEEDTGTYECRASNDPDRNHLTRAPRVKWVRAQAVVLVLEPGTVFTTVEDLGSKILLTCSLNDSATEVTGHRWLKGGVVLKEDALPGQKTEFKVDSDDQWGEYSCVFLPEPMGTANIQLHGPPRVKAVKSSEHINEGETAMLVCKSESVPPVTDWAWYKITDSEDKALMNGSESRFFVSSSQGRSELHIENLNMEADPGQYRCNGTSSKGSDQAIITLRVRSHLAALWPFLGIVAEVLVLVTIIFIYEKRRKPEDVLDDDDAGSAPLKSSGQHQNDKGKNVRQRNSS

Legend:
[1] = molecular target: human CD147 on the surface of human cell lines (human) (UniProt P35613); assay: FACS on human KYSE-70 esophageal epithelial cell line
[2] = molecular target: cynomolgus monkey CD147 on the cynomolgus primary kidney epithelial cell line (cynomolgus monkey); assay: FACS on cynomolgus primary kidney epithelial cell line

B1: humanized anti-human CD147 monoclonal antibody hu 3A11 Lc1/Hc1 (antibody, V domains shown)
VH: EVQLVESGGGLVQPGGSLRLSCAASGFTFSNYWMDWVRQAPGKGLEWVGEIRLKSYNYATHYAASVKGRFTISRDDSKNSVYLQMNSLKTEDTAVYYCTAAGTDYWGQGTLVTVSS
VL: DIQMTQSPSSLSASVGDRVTITCRASQSVRTDVGWYQQKPGKAPKLLIYYSSNRYTGVPSRFSGSGSGTDFTLTISSLQPEDFATYYCQQDYSSPYTFGQGTKLEIK
[1]
  binding: binds
[2]
  binding: binds
